Reference: PubChem BioAssay AID1794845 (National Center for Advancing Translational Sciences (NCATS), 2023)
Among all 6,900 compounds or so, fewer than 10 were called active. Calls come from the whole dose curve; as a rule, active = well fitted curve in the direction sought with a large enough effect; inconclusive = small, poorly fitted or top-dose-only effect, or another doubt; inactive = no such curve, though single readings can be large or run the other way. Some of the results follow.

Sequences of proteins named here, by UniProt entry; tags and fusion partners are left off. A change or cut given only in a name is not applied to a line headed by its entry.
UniProt C7C422: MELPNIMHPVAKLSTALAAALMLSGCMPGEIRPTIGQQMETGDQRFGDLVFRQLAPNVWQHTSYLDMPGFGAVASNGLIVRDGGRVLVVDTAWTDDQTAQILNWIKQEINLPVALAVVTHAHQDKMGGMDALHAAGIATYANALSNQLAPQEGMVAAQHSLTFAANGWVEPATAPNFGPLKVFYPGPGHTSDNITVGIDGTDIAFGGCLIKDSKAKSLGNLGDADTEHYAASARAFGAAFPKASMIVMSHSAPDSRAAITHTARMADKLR

biological target: Metallo-beta-lactamase type 2 (Klebsiella pneumoniae) (UniProt C7C422); assay: qHTS to identify inhibitors of the New Delhi Metallo-beta-lactamase (NDM): primary screen against the NCATS Gemini Collection; conditions: NDM-1 enzyme, meropenem hydrolysis, absorbance 300 nm; at 38.4 µM (top of the series) unless noted; note: % of control where 0% means no effect
Procedure, shortened: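 NDM-1 at 2 nM final in 50 mM HEPES pH 7.0, 1 uM ZnSO4, 0.01% Tween20, preincubated >30 min with compound. Meropenem 50 uM final added; absorbance at 300 nm after 30 min.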

Row | SMILES | activity % (negative = inhibition)
1 | COc1ccccc1C(=O)N1CCC(C(=O)N2CCC(N3Cc4ccccc4C3=O)CC2)CC1 | inactive: 15.7%
2 | Cc1ccc(S(=O)(=O)N2CCCCCC2c2nnc(C)o2)c(C)c1 (centres undefined) | inactive: 8.31%
3 | COc1ccc(C(=O)NC2CCN(c3nc4ncccc4o3)CC2)cc1 | inactive: 6.51%
4 | CN(Cc1ccc(F)cc1)S(=O)(=O)c1cccs1 | inactive: 0.177% [at 57.5 µM]
5 | Cc1ccccc1C(=O)N1CCC2(CC1)CC(c1cccc(C(F)(F)F)c1)=NO2 | inactive: 51.9%
6 | CCCCS(=O)(=O)NC1CCc2nn(CC3CC3)c(=O)n2CC1 (centres undefined) | inactive: 0.295%
7 | CC(O)c1cc2n(n1)CCCN(c1ncnc3ccsc13)C2 (centres undefined) | inactive: 54.7%
8 | Cc1ccc(CN2CC[C@H](c3nnc(-c4ccco4)o3)C2)o1 | inactive: 13.1% [at 57.5 µM]
9 | CC(C)N1CCN(C(=O)CC2=C3CCCCC3NC2=O)CC1 (centres undefined) | inactive: 3.89%
10 | CCCNC(=O)N1CCCCC1c1n[nH]c(C)n1 (centres undefined) | inactive: 9.05%
11 | COC(=O)c1cc2n(n1)CCCN(C(=O)COc1ccc(C)c(C)c1)C2 | inactive: -0.546%
12 | NC(=O)c1cccc(CC2CCN(C(=O)c3ccnc(-n4cnnc4)c3)C2)c1 (centres undefined) | inactive: 1.2%
13 | COCCn1c(=O)c2c(n1Cc1ccccc1)CN(C(=O)c1cc3ccccc3[nH]1)CC2 | inactive: 13.5% [at 57.5 µM]
14 | CC(C)C1=NOC2(CCN(C(=O)c3ccccc3F)CC2)C1 | inactive: -0.0545% [at 57.5 µM]
15 | CCc1cc(=O)n(CC(=O)Nc2ccccc2OC)c(N2CCOCC2)n1 | inactive: 10.1%
16 | CC(C)N1C[C@@H](C(=O)O)C[C@H](C(=O)Nc2ccc(F)cc2)C1 | inactive: -3.69%
17 | Cn1ccnc1CN1C(=O)CO[C@H]2CN(C3CCCCC3)C[C@H]21 | inactive: -9.79% [at 57.5 µM]
18 | CCc1nc(-c2ccc(OC3CCN(S(=O)(=O)Cc4ccccc4)C3)cc2)no1 (centres undefined) | inactive: 1.08%
19 | CC(=O)N1CCCN(c2ncnc3c2CN(C2CCCCC2)C(=O)CN3C)CC1 | inactive: 0.617%
20 | NS(=O)(=O)c1ccc(-n2nc(C3CCOC3)nc2C2CCC2)cc1 (centres undefined) | inactive: -1.95%
21 | COC(=O)c1ccc(NCC2=CC(C)(C)COc3ccc(OC)cc32)cc1 | inactive: 20.8%

Row | SMILES | activity % (negative = inhibition)
22 | CN1CCN(C(=O)c2cncc(N[C@H]3C[C@@H]4OCC[C@H]34)n2)CC1 | inactive: 3.03%
23 | COc1ccccc1N1CCCc2ncc(C(=O)N3CCN(C(C)=O)CC3)cc21 | inactive: 13.8% [at 57.5 µM]
24 | COc1ccccc1N1CCN([C@@H]2[C@H](O)[C@H](CO)O[C@@H]2CN(Cc2ccc(F)cc2)Cc2ccc(F)cc2)CC1 | inactive: 21.2%
25 | CN(Cc1ccc(F)cc1)C(=O)c1cccc(Cl)c1 | inactive: 12.3% [at 57.5 µM]
26 | CN1C[C@@H]2CC[C@H](CC1=O)N2C(=O)c1cnn2cc(CCO)cnc12 | inactive: 27%
27 | COc1ccccc1C(C)N(C)C(=O)c1cccc(CCC(C)(C)O)c1 (centres undefined) | inactive: -11.8%
28 | O=C(NCCN1CCCC1)c1c(OCC2CC2)cc(=O)n2c1CCOCC2 | inactive: 1.9%
29 | COc1ccc(CCN2Cc3cc(NC(=O)Cc4cccs4)ccc3OCC2=O)cc1 | inactive: 0.749%
30 | Cc1cc(CNC(=O)[C@@H]2CCC[C@@H](NC(=O)C3CCOCC3)CN(C)C(=O)C2)no1 | inactive: 76.9% [at 57.5 µM]
31 | O=c1c2nc(Nc3ccc(C(F)(F)F)cc3)ccc2ncn1Cc1ccccn1 | inactive: 16.4% [at 57.5 µM]
32 | COC(=O)[C@H]1CCCN1C(=O)[C@@H]1C[C@H](NC(=O)Nc2ccc(F)cc2F)CN1C(=O)CSC | inactive: -2.79%
33 | O=C1Nc2ccccc2C12CN([S+](=O)([O-])c1ccccc1)C2 | inactive: 0.414%
34 | COc1ccc(C[C@H](NC(=O)[C@@H]2C[C@H](NC(=O)Nc3ccc(F)cc3F)CN2C(=O)CC(C)(C)C)C(N)=O)cc1 | inactive: -3.76%
35 | CN(Cc1cnn(C)c1)C(=O)c1csc2nc(-c3cccc(C(F)(F)F)c3)cn12 | inactive: 0.253%
36 | CCC(=O)NCC1Cn2cccc2C(=O)N1Cc1ccccc1 (centres undefined) | inactive: -5.65%
37 | Cc1cc(C)c(S(=O)(=O)NCCn2c(C)cnc2C2CCC2)cc1C | inactive: -0.853%
38 | COc1ccc(C(=O)N2CCCCCNC(=O)[C@@H]3CCC[C@@H]32)cn1 | inactive: 2.51%
39 | O=C(Cc1cccc(C(F)(F)F)c1)N[C@H]1CCOC[C@H]1C1CCOCC1 | inactive: 9.72%
40 | COc1ccc(F)c(-c2nc(CN(C)CC3(CO)CC3)c(C)o2)c1 | inactive: 15.7%
41 | OC[C@H]1CCN(c2ccnc3c(C(F)(F)F)cccc23)C[C@H]1O | inactive: 12.7%
42 | CN(C)[C@@H]1CN(C(=O)c2cc3ccccc3[nH]2)CC[C@@H]1CO | inactive: 20.1%

As entered above:
Under activity % (negative = inhibition), Cn1ccnc1CN1C(=O)CO[C@H]2CN(C3CCCCC3)C[C@H]21 is entered as inactive: -9.79% [at 57.5 µM]
Under activity % (negative = inhibition), Cc1ccc(CN2CC[C@H](c3nnc(-c4ccco4)o3)C2)o1 is entered as inactive: 13.1% [at 57.5 µM]
Under activity % (negative = inhibition), CC(=O)N1CCCN(c2ncnc3c2CN(C2CCCCC2)C(=O)CN3C)CC1 is entered as inactive: 0.617%
Under activity % (negative = inhibition), Cc1cc(C)c(S(=O)(=O)NCCn2c(C)cnc2C2CCC2)cc1C is entered as inactive: -0.853%
Under activity % (negative = inhibition), COc1ccccc1N1CCCc2ncc(C(=O)N3CCN(C(C)=O)CC3)cc21 is entered as inactive: 13.8% [at 57.5 µM]

Next part:

Row | SMILES | activity % (negative = inhibition)
43 | CN(C/C=C/c1ccccc1)C(=O)C1CCC(=O)N(Cc2cccc(F)c2)C1 (centres undefined) | inactive: 38.1%
44 | COc1ccc(-c2cn(C)c(=O)n3cc(CN4CCNC(=O)C4)nc23)cn1 | inactive: -6.58% [at 57.5 µM]
45 | COCCC1(NC(=O)c2ccccc2)CCN(Cc2ccc(F)cc2F)CC1 | inactive: 1.52%
46 | Cc1cc(C)n(CCC(=O)N2CCC(Cc3noc(C4CC4)n3)C2)n1 (centres undefined) | inactive: -2.04%
47 | O=C(C1CCCC1)N1CCC(n2cnnc2C2CC2)CC1 | inactive: -1.2%
48 | COc1nccc(N2CCC(CC(=O)N3CCN(C(C)=O)CC3)CC2)n1 | inactive: 6.15%
49 | O=C(O)CCC1CCCN(S(=O)(=O)c2ccc(F)cc2)C1 (centres undefined) | inactive: 1.23%
50 | CC(C)N1C[C@H](O)C[C@H]1c1nnc2n1CCN(C(=O)c1ccco1)CC2 | inactive: 8.27%
51 | COc1cccc(CN2CC(Oc3ccccc3C(=O)NC3CC3)C2)c1 | inactive: 47%
52 | O=C(CN1CCOCC1)NC1CCc2nnc(C3CC3)n2CC1 (centres undefined) | inactive: -2.23%
53 | O=C(COc1cccc(-c2nnc3n2CCCC3)c1)Nc1ccc(Cl)cc1F | inactive: 8.11%
54 | CCCC1(C(=O)O)CCCN(S(=O)(=O)c2ccsc2C(=O)O)C1 (centres undefined) | inactive: -4.63%
55 | CN1CCCC2(CCN(C(=O)CCc3ccc(Cl)cc3)C2)C1=O (centres undefined) | inactive: 3.42%
56 | O=C(COc1ccc(Cl)cc1)N1CCc2nn(CC3CC3)c(=O)n2CC1 | inactive: 2.97%
57 | COc1ncccc1-c1csc(CN2CCCC(C)(NC(C)=O)C2)c1 (centres undefined) | inactive: 9.37% [at 57.5 µM]
58 | Cc1nn(-c2ccccc2)c2c1C(C)N(C1CCN([S+](=O)([O-])c3ccccc3)CC1)C2=O (centres undefined) | inactive: 11.5%
59 | CC(C)NC(=O)C[C@@H]1O[C@H](CNC(=O)C2CC2)[C@@H](O)[C@H]1O | inactive: 10.6% [at 57.5 µM]
60 | Oc1ccccc1CN1CC(CNc2cccnc2)C2(C1)CN(c1ccccc1)C2 (centres undefined) | inactive: 28.9% [at 57.5 µM]
61 | COc1ccccc1OCCNC(=O)C1(C)CCCCC(=O)N1 (centres undefined) | inactive: -0.782%
62 | COc1ccc(-c2cc(C[C@H]3CNCC[C@H]3CC(=O)N3CCN(C)CC3)no2)cc1 | inactive: 27.9% [at 57.5 µM]
63 | COc1ccc(CN[C@H]2CC(C)(C)[C@@H]3C[C@@](C)(O)CC[C@]23CCC(=O)NCc2ccco2)cc1 | inactive: 0.334%

Row | SMILES | activity % (negative = inhibition)
64 | OCCc1cc(CC2(NCc3ccc(CO)o3)COC2)no1 | inactive: -0.284% [at 57.5 µM]
65 | COc1cc(NC(=O)O[C@@H]2CC[C@]3(C)C(CC[C@@H](O)[C@H]3CC(=O)N3CC[C@H](NC(C)=O)C3)[C@]2(C)CO)cc(OC)c1 (some centres undefined) | inactive: 3.07%
66 | O=C(Cn1nc2c(cc1=O)CCCC2)N1CCOCC1 | inactive: 8.36%
67 | O=C(Nc1cccnc1)c1cnc2c(c1)N(Cc1ccccc1)CCC2 | inactive: 55.2% [at 57.5 µM]
68 | COc1ccc2c(c1)CN(C1CCN(C)CC1)CC[C@H]1COC(=O)N21 | inactive: 19.3% [at 57.5 µM]
69 | Fc1ccc(OCc2nc(C3CCNCC3)no2)cc1 | inactive: 27.2%
70 | CCN1c2cc(C(=O)Nc3ccccc3OC)ccc2C(=O)N2CCCCCC21 (centres undefined) | inactive: 13.5%
71 | CC1CCN(CC2CCCCCN2C(=O)Nc2ccc3c(c2)OCCO3)CC1 (centres undefined) | inactive: 15.7%
72 | CC1CCN(CC2CCCN(C(=O)NC3CCCCC3)CC2)CC1 (centres undefined) | inactive: -9.26%
73 | O=C(c1ccncc1)N1CCCC(Cc2noc(-c3cnccn3)n2)C1 (centres undefined) | inactive: -0.0591%
74 | Cc1noc(C)c1S(=O)(=O)N1C[C@@H](Oc2cccnc2)C[C@H]1C(N)=O | inactive: -3.24%
75 | CC1(NC(=O)C2CC2)CN(c2ccc(OC(F)(F)F)cc2)C1 | inactive: -2.27% [at 57.5 µM]
76 | COc1ccccc1C(=O)N1CCC2(CC1)C(=NC1CCCCC1)NC(=O)N2c1cccnc1 | inactive: 4.34%
77 | O=C(C1CCCC1)N1CC2(CCN(Cc3cccnc3)CC2)Cc2ccccc21 | inactive: -4.68%
78 | COc1cccc(C(=O)N2CCCN(CCn3nc4n(c3=O)CCCC4)CC2)c1 | inactive: 0.654%
79 | Cc1cccc(Nc2nc(N)nc(CN3CC[C@@](O)(C4CCC4)[C@H](C)C3)n2)c1 | inactive: 15.3%
80 | COc1ccc(S(=O)(=O)Nc2ccc3n(c2=O)C[C@H]2C[C@@H]3CN(C(=O)Nc3cc(OC)cc(OC)c3)C2)cc1 | inactive: 1.93%
81 | CCN(CC)C(=O)c1cc2c(s1)CCC(C(=O)O)C2 (centres undefined) | inactive: 25.1%
82 | Cc1cccc(OCc2c(C(=O)N3CCCC3c3nncn3CCN(C)C)noc2C)c1 (centres undefined) | inactive: -0.226%
83 | O=C1CCCN1CCCN1C(=O)[C@H]2CN(Cc3ccc(Cl)cc3)C[C@H]2C1=O | inactive: -6.58%
84 | O=C1c2ccccc2CN1C1CCN(Cc2cccc3ccccc23)CC1 | inactive: -1.67%
